Experimental data as given in the supplement of paper PMC10849652.
The list shows a part of the results.

Amino acid sequences for entries named in this document (tags omitted). A change or cut given only in a name is not applied to a line headed by its entry.
UniProt Q9H900: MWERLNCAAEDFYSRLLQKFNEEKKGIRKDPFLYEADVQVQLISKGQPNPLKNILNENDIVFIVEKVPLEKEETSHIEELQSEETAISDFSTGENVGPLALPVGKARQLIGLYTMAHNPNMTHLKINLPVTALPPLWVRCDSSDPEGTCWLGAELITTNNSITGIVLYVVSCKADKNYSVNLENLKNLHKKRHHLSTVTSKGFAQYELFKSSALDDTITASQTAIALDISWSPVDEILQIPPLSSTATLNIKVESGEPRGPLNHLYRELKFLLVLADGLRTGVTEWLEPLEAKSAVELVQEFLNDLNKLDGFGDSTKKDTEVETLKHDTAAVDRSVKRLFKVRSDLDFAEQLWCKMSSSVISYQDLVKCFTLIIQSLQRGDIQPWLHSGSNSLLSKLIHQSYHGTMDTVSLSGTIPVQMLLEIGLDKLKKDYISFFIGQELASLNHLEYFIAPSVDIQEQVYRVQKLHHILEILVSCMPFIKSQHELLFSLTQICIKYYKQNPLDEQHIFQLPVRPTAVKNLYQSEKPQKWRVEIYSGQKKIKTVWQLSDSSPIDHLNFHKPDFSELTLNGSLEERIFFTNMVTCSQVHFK
UniProt O95229: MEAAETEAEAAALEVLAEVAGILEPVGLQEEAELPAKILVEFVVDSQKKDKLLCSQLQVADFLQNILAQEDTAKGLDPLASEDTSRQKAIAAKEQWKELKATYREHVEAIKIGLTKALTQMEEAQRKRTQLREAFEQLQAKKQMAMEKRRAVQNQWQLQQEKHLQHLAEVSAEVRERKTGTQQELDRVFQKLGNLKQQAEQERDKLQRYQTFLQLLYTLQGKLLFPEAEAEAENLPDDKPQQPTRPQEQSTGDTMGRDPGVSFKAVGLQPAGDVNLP
UniProt Q9C0D3: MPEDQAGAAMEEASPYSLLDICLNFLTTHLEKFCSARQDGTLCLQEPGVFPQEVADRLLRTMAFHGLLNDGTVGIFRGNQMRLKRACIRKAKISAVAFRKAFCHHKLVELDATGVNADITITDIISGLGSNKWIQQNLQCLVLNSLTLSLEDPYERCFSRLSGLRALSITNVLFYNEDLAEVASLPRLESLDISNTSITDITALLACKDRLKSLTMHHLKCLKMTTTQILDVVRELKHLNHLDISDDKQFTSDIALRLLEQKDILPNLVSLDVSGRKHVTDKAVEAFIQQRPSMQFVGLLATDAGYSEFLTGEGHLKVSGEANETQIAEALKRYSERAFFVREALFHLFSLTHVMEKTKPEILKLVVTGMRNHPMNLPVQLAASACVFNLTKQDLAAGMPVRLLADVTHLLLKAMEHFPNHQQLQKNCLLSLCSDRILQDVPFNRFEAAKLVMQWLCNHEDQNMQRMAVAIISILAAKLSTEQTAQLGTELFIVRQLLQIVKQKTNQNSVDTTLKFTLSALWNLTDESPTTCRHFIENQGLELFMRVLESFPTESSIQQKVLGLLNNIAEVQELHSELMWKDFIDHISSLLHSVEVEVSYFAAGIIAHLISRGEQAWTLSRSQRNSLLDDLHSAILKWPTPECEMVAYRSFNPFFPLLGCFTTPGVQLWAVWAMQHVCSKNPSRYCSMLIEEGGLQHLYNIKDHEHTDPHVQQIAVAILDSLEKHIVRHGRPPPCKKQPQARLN
UniProt Q15942: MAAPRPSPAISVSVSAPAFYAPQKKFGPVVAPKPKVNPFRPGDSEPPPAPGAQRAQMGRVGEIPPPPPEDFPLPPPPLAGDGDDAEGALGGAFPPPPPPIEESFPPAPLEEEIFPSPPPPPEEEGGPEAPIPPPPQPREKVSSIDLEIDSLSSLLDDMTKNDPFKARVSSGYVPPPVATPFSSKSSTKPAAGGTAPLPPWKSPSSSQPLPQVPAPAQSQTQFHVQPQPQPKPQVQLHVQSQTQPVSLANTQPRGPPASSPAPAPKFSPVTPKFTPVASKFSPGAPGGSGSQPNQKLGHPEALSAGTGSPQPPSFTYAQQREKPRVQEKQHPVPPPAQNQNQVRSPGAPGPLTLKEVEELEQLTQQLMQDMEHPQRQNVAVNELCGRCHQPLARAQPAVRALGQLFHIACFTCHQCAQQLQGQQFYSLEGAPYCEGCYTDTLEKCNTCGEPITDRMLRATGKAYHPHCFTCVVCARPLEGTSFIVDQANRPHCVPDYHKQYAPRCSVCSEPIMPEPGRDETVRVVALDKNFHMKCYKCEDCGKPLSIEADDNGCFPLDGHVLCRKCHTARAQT
UniProt O43149: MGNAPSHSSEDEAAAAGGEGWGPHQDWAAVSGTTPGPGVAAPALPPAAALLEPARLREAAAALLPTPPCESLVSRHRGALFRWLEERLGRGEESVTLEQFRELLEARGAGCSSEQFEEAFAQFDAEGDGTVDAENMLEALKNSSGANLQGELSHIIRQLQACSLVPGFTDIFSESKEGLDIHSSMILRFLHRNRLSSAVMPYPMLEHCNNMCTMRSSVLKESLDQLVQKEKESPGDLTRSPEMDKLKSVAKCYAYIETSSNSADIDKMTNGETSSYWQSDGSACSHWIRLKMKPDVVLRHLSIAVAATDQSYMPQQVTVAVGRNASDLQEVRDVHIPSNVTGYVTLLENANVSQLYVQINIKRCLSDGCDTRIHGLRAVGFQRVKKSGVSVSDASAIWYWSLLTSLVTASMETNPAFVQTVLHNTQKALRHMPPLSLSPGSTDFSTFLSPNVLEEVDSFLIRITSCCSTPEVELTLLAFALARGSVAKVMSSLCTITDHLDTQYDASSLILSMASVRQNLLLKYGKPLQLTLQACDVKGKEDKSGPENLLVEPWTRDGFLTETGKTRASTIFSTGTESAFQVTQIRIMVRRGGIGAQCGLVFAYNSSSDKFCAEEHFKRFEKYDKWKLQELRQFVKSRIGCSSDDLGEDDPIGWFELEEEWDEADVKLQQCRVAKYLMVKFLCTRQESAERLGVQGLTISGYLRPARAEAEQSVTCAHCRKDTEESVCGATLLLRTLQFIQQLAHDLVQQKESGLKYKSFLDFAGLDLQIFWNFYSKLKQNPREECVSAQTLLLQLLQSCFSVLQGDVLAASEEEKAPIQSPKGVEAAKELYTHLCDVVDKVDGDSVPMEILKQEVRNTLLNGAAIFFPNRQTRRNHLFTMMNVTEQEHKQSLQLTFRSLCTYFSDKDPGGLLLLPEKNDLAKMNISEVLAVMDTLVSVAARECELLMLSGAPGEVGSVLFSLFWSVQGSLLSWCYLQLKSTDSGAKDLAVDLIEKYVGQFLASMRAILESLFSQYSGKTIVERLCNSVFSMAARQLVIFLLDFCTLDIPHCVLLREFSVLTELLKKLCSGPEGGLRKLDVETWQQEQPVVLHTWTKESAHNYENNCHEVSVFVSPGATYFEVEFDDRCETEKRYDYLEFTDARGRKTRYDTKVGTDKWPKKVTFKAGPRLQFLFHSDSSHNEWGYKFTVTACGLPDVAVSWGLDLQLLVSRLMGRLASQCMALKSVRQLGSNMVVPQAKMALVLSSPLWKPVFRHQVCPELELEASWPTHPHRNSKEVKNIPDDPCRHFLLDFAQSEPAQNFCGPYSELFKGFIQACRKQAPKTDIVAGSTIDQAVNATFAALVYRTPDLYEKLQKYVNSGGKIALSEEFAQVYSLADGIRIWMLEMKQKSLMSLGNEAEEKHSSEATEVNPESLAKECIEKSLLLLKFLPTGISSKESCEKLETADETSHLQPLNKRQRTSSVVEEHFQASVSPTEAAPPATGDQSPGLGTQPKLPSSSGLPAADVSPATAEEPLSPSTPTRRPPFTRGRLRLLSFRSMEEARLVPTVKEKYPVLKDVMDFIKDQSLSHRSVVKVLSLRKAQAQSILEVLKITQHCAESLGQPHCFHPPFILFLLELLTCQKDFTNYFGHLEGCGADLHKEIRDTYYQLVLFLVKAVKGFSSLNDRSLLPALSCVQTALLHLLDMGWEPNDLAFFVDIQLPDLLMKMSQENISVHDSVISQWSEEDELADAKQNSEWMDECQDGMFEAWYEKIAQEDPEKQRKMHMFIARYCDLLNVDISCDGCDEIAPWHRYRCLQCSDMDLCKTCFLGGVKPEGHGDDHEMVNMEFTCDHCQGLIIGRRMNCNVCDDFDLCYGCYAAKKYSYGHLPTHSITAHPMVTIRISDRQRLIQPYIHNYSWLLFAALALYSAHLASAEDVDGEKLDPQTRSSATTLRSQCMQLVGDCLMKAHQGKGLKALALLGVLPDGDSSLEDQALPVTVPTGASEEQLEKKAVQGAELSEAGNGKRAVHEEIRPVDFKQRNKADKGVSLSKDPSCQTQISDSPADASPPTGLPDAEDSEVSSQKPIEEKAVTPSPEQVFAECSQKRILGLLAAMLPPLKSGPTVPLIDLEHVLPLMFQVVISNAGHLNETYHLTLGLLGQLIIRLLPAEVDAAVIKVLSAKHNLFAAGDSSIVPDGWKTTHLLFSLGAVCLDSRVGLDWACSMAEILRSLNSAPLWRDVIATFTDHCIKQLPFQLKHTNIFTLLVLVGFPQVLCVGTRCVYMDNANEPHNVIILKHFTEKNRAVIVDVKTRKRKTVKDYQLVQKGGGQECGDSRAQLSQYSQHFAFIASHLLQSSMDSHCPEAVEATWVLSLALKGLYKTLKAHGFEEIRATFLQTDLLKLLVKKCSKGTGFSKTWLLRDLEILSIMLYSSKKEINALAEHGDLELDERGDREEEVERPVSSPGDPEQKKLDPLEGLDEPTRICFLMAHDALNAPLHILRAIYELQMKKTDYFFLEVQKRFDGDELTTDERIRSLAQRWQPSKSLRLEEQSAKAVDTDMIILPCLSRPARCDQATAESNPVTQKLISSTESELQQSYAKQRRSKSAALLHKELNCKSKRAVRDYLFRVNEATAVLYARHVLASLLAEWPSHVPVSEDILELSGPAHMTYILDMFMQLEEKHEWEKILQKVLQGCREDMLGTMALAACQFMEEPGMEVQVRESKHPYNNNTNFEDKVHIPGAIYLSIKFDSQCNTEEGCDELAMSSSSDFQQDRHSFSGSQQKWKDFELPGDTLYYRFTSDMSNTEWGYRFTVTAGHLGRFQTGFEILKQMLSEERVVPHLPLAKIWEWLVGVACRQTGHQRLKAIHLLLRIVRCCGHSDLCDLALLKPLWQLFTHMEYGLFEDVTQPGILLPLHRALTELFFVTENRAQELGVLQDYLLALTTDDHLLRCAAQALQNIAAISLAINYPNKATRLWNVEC
UniProt Q8IYH5: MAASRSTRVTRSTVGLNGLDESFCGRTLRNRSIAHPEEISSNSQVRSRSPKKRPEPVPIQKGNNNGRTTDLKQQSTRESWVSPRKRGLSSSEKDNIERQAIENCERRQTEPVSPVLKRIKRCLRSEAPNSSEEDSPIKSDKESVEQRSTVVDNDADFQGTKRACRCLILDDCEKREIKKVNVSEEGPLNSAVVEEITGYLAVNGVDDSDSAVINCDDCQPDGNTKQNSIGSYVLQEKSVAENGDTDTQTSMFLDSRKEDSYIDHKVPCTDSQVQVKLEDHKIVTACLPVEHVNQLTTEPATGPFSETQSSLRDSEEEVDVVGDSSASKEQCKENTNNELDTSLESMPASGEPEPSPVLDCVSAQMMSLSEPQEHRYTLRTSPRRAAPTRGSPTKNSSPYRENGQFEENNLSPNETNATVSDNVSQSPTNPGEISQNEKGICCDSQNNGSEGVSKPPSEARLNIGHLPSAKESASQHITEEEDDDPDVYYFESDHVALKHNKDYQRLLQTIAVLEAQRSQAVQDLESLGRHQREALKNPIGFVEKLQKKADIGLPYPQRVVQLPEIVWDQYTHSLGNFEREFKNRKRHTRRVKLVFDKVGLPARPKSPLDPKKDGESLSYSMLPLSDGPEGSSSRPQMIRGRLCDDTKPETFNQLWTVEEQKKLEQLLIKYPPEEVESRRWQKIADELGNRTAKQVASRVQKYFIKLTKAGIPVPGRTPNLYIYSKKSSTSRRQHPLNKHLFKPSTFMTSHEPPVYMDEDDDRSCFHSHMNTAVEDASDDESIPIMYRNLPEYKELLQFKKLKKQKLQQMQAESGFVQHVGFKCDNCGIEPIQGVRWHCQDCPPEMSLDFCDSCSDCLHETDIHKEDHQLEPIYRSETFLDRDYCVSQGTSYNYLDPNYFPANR

Assays:
Test in all cases: log2 fold change, soluble protein after heating vs DMSO (PISA); higher = thermal stabilisation; K562 cells, 10 uM, 30 min; active = over 0.2 and 3.5 SD of the protein, either way, in both replicates (recomputed)
[1] = molecular target: ZWILCH (UniProt Q9H900)
Outline: (§1)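 K562 cells at 2×10^6 cells/mL were treated for 30 min with 10 μM compound, and aliquots were heated for 3 min over 48°C-58°C before pooling. Extraction used PBS with 0.5% NP-40 at 4°C, and soluble protein was the supernatant after 21,000xg for 90 min, measured by TMTpro 16plex LC-MS/MS with channel sums equalised. Thermal stability values, relative to control samples and from duplicates, are log2 fold changes.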

[2] = molecular target: ZWINT (UniProt O95229)
Outline: as §1

[3] = molecular target: ZYG11B (UniProt Q9C0D3)
Outline: as §1

[4] = molecular target: ZYX (UniProt Q15942)
Outline: as §1

[5] = molecular target: ZZEF1 (UniProt O43149)
Outline: as §1

[6] = molecular target: ZZZ3 (UniProt Q8IYH5)
Outline: as §1

| Structure (SMILES) | log2 fold change [1] | log2 fold change [2] | log2 fold change [3] | log2 fold change [4] | log2 fold change [5] | log2 fold change [6] |
| --- | --- | --- | --- | --- | --- | --- |
| Cc1cn(-c2cc(NC(=O)c3ccc(C)c(Nc4nccc(-c5cccnc5)n4)c3)cc(C(F)(F)F)c2)cn1 [nilotinib] | inactive: -0.047 | inactive: -0.061 | inactive: 0.025 | inactive: 0.015 | inactive: -0.051 |  |
| Cc1ccc(NC(=O)c2ccc(CN3CC[C@H](N(C)C)C3)c(C(F)(F)F)c2)cc1Nc1nccc(-c2cncnc2)n1 [bafetinib] | inactive: -0.031 | inactive: -0.012 | active: -0.272 | inactive: -0.058 | inactive: 0.037 |  |
| Cc1ncc(-c2ccnc(Nc3ccc(S(C)(=O)=O)cc3)n2)n1C(C)C | inactive: 0.071 | inactive: 0.021 | inactive: 0.037 | inactive: 0.015 | inactive: -0.081 |  |
| CN1CCN(c2nc(C3=C(c4c[nH]c5ccccc45)C(=O)NC3=O)c3ccccc3n2)CC1 [sotrastaurin] | inactive: -0.059 | inactive: -0.073 | inactive: 0.026 | inactive: 0.019 | inactive: 0.003 |  |
| CC(C)(O)CC(=O)NCCn1ccc2ncnc(Nc3ccc(Oc4cccc(C(F)(F)F)c4)c(Cl)c3)c21 | inactive: 0.012 | inactive: -0.033 | inactive: -0.017 | inactive: 0.017 | inactive: -0.093 |  |
| C=CC(=O)N1CCC[C@@H](n2nc(-c3ccc(Oc4ccccc4)cc3)c3c(N)ncnc32)C1 [ibrutinib] | inactive: -0.014 | inactive: -0.031 | inactive: 0.022 | inactive: 0.013 | inactive: -0.054 |  |
| COc1cccc2cc(-c3nc([C@H]4CC[C@H](C(=O)O)CC4)n4ncnc(N)c34)[nH]c12 | inactive: -0.041 | inactive: -0.045 | inactive: 0.02 | inactive: 0.03 | inactive: -0.064 |  |
| CC[C@H](C)n1cc(C)c2c(C(=O)NCc3c(C)cc(C)[nH]c3=O)cc(-c3ccc(N4CCNCC4)nc3)cc21 | inactive: 0.048 | inactive: 0.027 | inactive: 0.101 | inactive: -0.037 | inactive: -0.014 |  |
| CO[C@H]1C[C@@H]2CC[C@@H](C)[C@@](O)(O2)C(=O)C(=O)N2CCCC[C@H]2C(=O)O[C@H]([C@H](C)C[C@@H]2CC[C@H](n3cnnn3)[C@H](OC)C2)CC(=O)[C@H](C)/C=C(\C)[C@@H](O)[C@@H](OC)C(=O)[C@H](C)C[C@H](C)/C=C/C=C/C=C/1C [zotarolimus] | inactive: 0.046 | inactive: 0.029 | inactive: 0.024 | inactive: -0.027 | inactive: 0 |  |
| CNc1nc(-c2ccc3c(N)n[nH]c3c2)cc(N2C[C@@H](C(=O)NC3CCCCC3)CC[C@H]2C)n1 | inactive: -0.037 | inactive: -0.135 | inactive: 0.002 | inactive: -0.036 | inactive: -0.004 |  |
| CCCc1cc(C)[nH]c(=O)c1CNC(=O)c1cc(-c2ccnc(N3CCN(C)CC3)c2)cc2c1cnn2C(C)C | inactive: 0.004 | inactive: 0.004 | inactive: 0.1 | inactive: -0.035 | inactive: 0.006 |  |
| Cc1cc(Nc2cc(CN3CCOCC3)c3nc(C)c(Cc4ccc(Cl)cc4F)n3n2)n[nH]1 [gandotinib] | inactive: -0.12 | inactive: 0.011 | inactive: 0.093 | inactive: 0.048 | inactive: -0.098 |  |
| C[C@@H](Oc1cc(-c2cnn(C3CCNCC3)c2)cnc1N)c1c(Cl)ccc(F)c1Cl [crizotinib] | inactive: -0.068 | inactive: 0.071 | inactive: -0.031 | inactive: 0 | inactive: -0.016 |  |
| Nc1ccccc1NC(=O)c1ccc(CNC(=O)OCc2cccnc2)cc1 [entinostat] | inactive: 0.002 | inactive: 0.012 | inactive: 0.013 | inactive: 0.003 | inactive: -0.006 |  |
| CC(C)(C)Cn1c(N)nc2ccc(-c3[nH]c(C(C)(C)C)nc3-c3ccc(F)cc3)nc21 [ralimetinib] | inactive: 0.049 | inactive: 0.042 | inactive: -0.046 | inactive: -0.031 | inactive: 0.008 |  |
| Cn1c2cc(S(C)=O)sc2c2cnn(Cc3cccc(N)c3)c(=O)c21 (stereo not drawn) | inactive: -0.04 | inactive: 0.014 | inactive: -0.053 | inactive: -0.03 | inactive: -0.017 |  |
| Oc1cc(-c2nc(-c3ccccc3)[nH]c2-c2ccncc2)ccc1Cl | inactive: -0.002 | inactive: 0.01 | inactive: 0.015 | inactive: 0.016 | inactive: -0.012 |  |
| C[C@@H](N)c1ccc(C(=O)Nc2ccnc3[nH]ccc23)cc1 | inactive: 0.014 | inactive: -0.009 | inactive: -0.035 | inactive: -0.025 | inactive: 0.053 |  |
| Fc1ccc(Cl)cc1-c1nc(Nc2ccncc2)c2nccnc2n1 | inactive: -0.013 | inactive: -0.063 | inactive: 0.013 | inactive: 0.03 | inactive: 0.037 |  |

Shown as tab-separated lines: two of the compounds above.
Structure (SMILES)	log2 fold change [1]	log2 fold change [2]	log2 fold change [3]	log2 fold change [4]	log2 fold change [5]	log2 fold change [6]
COc1cccc2cc(-c3nc([C@H]4CC[C@H](C(=O)O)CC4)n4ncnc(N)c34)[nH]c12	inactive: -0.041	inactive: -0.045	inactive: 0.02	inactive: 0.03	inactive: -0.064	
C[C@@H](Oc1cc(-c2cnn(C3CCNCC3)c2)cnc1N)c1c(Cl)ccc(F)c1Cl [crizotinib]	inactive: -0.068	inactive: 0.071	inactive: -0.031	inactive: 0	inactive: -0.016	

Carrying on:

| Structure (SMILES) | log2 fold change [1] | log2 fold change [2] | log2 fold change [3] | log2 fold change [4] | log2 fold change [5] | log2 fold change [6] |
| --- | --- | --- | --- | --- | --- | --- |
| CN1CCC(CNc2ccc3ncc(-c4cccc(OC(F)(F)F)c4)n3n2)CC1 | inactive: -0.085 | inactive: 0.035 | inactive: -0.113 | inactive: 0.015 | inactive: -0.02 |  |
| COC(=O)[C@H](CCSC)NC(=O)c1ccc(NC[C@@H](N)CS)cc1-c1ccccc1 | inactive: -0.077 | inactive: -0.011 | inactive: 0.013 | inactive: 0.01 | inactive: -0.045 |  |
| CS(=O)(=O)N1CCN(Cc2cc3nc(-c4cccc5[nH]ncc45)nc(N4CCOCC4)c3s2)CC1 [pictilisib] | inactive: -0.026 | inactive: 0.013 | inactive: 0.104 | inactive: 0.006 | inactive: -0.028 |  |
| CC(C)N(C[C@H]1O[C@@H](n2cnc3c(N)ncnc32)[C@H](O)[C@@H]1O)[C@H]1C[C@@H](CCc2nc3cc(C(C)(C)C)ccc3[nH]2)C1 [pinometostat] | inactive: 0.074 | inactive: -0.009 | inactive: 0.01 | inactive: -0.075 | inactive: 0.028 |  |
| COc1cc(C(=O)O)ccc1NC(=O)[C@@H]1N[C@@H](CC(C)(C)C)[C@](C#N)(c2ccc(Cl)cc2F)[C@H]1c1cccc(Cl)c1F [idasanutlin] | inactive: -0.051 | inactive: -0.028 | inactive: 0.01 | inactive: 0 | inactive: -0.029 | inactive: 0.028 |
| CCCS(=O)(=O)Nc1ccc(F)c(C(=O)c2c[nH]c3ncc(Cl)cc23)c1F | inactive: 0.016 | inactive: 0.065 | inactive: -0.043 | inactive: 0.021 | inactive: -0.014 | inactive: 0.013 |
| CCN(CC)Cc1ccc2cc(COC(=O)Nc3ccc(C(=O)NO)cc3)ccc2c1 [givinostat] | inactive: 0.046 | inactive: 0.032 | inactive: -0.009 | inactive: -0.013 | inactive: 0.008 | inactive: -0.007 |
| CS(=O)(=O)CCNCc1ccc(-c2ccc3ncnc(Nc4ccc(OCc5cccc(F)c5)c(Cl)c4)c3c2)o1 [lapatinib] | inactive: 0.018 | inactive: 0.021 | inactive: -0.05 | inactive: -0.035 | inactive: -0.008 | inactive: 0.021 |
| O=C(Nc1cccc(Nc2ncc(Br)c(NCCc3cnc[nH]3)n2)c1)N1CCCC1 | inactive: 0.029 | inactive: 0.045 | inactive: -0.026 | inactive: 0.025 | inactive: 0.024 | inactive: 0.051 |
| c1cn2cc(-c3ccc4cn[nH]c4c3)nc(Nc3ccc(N4CCOCC4)cc3)c2n1 [entospletinib] |  | inactive: -0.019 |  | inactive: 0.056 | inactive: 0.029 |  |
| CCn1c(C(=O)N(C2CC2)C2CC2)cc2c3c(ncn3C)c(Nc3cc(C)n(C)n3)nc21 |  | inactive: 0.068 |  | inactive: 0.013 | inactive: 0.002 | inactive: -0.048 |
| Cc1cc(SCc2sc(-c3ccc(C(F)(F)F)cc3)nc2C)ccc1OCC(=O)O | inactive: 0.027 | inactive: -0.019 | inactive: -0.133 | inactive: -0.02 | inactive: 0.044 |  |
| COc1cc2nc(-c3cc(F)ccc3O)nc(N[C@@H]3CNC[C@H]3C(C)(C)O)c2cc1OC | inactive: 0.03 | inactive: 0 | inactive: 0.034 | inactive: -0.038 | inactive: 0.066 | inactive: 0.058 |
| CC1=C(C(=O)Nc2cc3cn[nH]c3cc2F)C(c2ccc(C(F)(F)F)cc2)CC(=O)N1 (stereo not drawn) |  | inactive: -0.054 |  | inactive: 0.039 | inactive: -0.054 |  |
| Cc1cc(Nc2cc(N3CCN(C)CC3)nc(Sc3ccc(NC(=O)C4CC4)cc3)n2)n[nH]1 [tozasertib] |  | inactive: 0.064 |  | inactive: 0.002 | inactive: 0.027 | inactive: -0.089 |
| NC(=O)c1ccc2nc(-c3ccc(Oc4ccc(Cl)cc4)cc3)[nH]c2c1 | inactive: -0.028 | inactive: -0.017 | inactive: 0 | inactive: -0.003 | inactive: -0.01 | inactive: 0.085 |
| Cc1ccc2c(=O)c3ccccc3n(CCCN)c2c1C | inactive: 0.013 | inactive: -0.167 | inactive: 0.009 | inactive: -0.037 | inactive: -0.032 | inactive: -0.03 |
| CNC(=O)c1ccccc1Nc1nc(Nc2ccc(N3CCOCC3)cc2OC)ncc1Cl | inactive: 0.027 | inactive: 0.011 | inactive: -0.016 | inactive: 0.02 | inactive: 0.061 | inactive: -0.06 |
